The text below walks through data of doi:10.1101/2024.08.11.607506.

The test has as its target T1, SRSF5 (UniProt Q13243).
T1 sequence: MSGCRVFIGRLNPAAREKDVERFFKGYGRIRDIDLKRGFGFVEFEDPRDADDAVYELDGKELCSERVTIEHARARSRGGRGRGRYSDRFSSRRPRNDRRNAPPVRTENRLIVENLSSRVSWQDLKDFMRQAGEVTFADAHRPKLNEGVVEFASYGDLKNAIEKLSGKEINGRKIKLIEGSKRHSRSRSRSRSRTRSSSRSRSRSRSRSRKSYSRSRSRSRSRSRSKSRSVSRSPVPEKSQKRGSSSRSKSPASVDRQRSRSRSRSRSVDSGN
The test can be described thus: affinity purification with mass spectrometry.

No constants are given. Whether binding was seen depends on the method and setting. In cells and extracts the contact can be indirect. Here binding means that the protein was enriched with, or labelled near, the bait; the list need not be complete. No binding means not detected with the bait.

B1: PSPC1 (protein, UniProt Q8WXF1 1-523)
chain: MMLRGNLKQVRIEKNPARLRALESAVGESEPAAAAAMALALAGEPAPPAPAPPEDHPDEEMGFTIDIKSFLKPGEKTYTQRCRLFVGNLPTDITEEDFKRLFERYGEPSEVFINRDRGFGFIRLESRTLAEIAKAELDGTILKSRPLRIRFATHGAALTVKNLSPVVSNELLEQAFSQFGPVEKAVVVVDDRGRATGKGFVEFAAKPPARKALERCGDGAFLLTTTPRPVIVEPMEQFDDEDGLPEKLMQKTQQYHKEREQPPRFAQPGTFEFEYASRWKALDEMEKQQREQVDRNIREAKEKLEAEMEAARHEHQLMLMRQDLMRRQEELRRLEELRNQELQKRKQIQLRHEEEHRRREEEMIRHREQEELRRQQEGFKPNYMENREQEMRMGDMGPRGAINMGDAFSPAPAGNQGPPPMMGMNMNNRATIPGPPMGPGPAMGPEGAANMGTPMMPDNGAVHNDRFPQGPPSQMGSPMGSRTGSETPQAPMSGVGPVSGGPGGFGRGSQGGNFEGPNKRRRY
With B1, the binding result is listed as “no binding”.
